# According to PubChem BioAssay AID493014 (National Center for Advancing Translational Sciences (NCATS), 2011):
# This is one part of the list. Shown are side measurements of this screen, not its main read-out; they come without a call. Compounds called inactive in the main read-out are mostly missing here. The note in brackets gives the kind of curve behind each potency; many fits are weak.
# Assay: qHTS Assay to Find Inhibitors of Chronic Active B-Cell Receptor Signaling
# Conditions: ABC-DLBCL IkBa-CBG/CBR reporter, luminescence ratio (green luciferase fused to IkBa over red control in TMD8 lymphoma cells), 4 h
# Procedure, shortened: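 Concentration-response series (up to 46 uM) were applied to TMD8 dual-reporter cells for 4 h at 37C with doxycycline. Green/red ratio, after filter-overlap correction, defined %Activity; red signal alone was normalised to basal cells and zero luminescence.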
# [1] = measured here: CBR red luminescence, cell number
# [2] = measured here: IkBa-CBG green luminescence
Compound,AC50 [1],AC50 [2]
O=C(Nc1cccc(Br)c1)c1ccn[nH]1,"10 µM [falling, partial curve]",–
O=[N+]([O-])c1ccc(O)c(/C=N/Nc2ccccn2)c1,"29.1 µM [falling, single point]",–
O=C(CSc1nc(=O)n2cc(Cl)ccc2n1)Nc1cccc2ccccc12,"8.2 µM [falling, partial curve]",–
NC(=O)[C@@H]1CCCN1C(=O)c1ccc2nc(Cc3ccccc3F)oc2c1,"35.5 µM [falling, partial curve, poor fit]",–
CCCCC(CC)C(=O)NCc1ccc(F)cc1 (configuration not stated),"0.731 µM [rising, full curve, poor fit]",–
C=CCOc1ccccc1CN(C(=O)CCl)c1ccc2c(c1)OCO2,"14.1 µM [falling, partial curve]",–
CCN1CCN(Cc2ccc(NC(=O)c3cc(NC(=O)c4cc(C)on4)cc(OC)c3)cc2C(F)(F)F)CC1,"11.2 µM [falling, partial curve]",–
COc1ccc(N(CC(=O)Nc2ccc(F)c(Cl)c2)S(=O)(=O)c2c(C)noc2C)cc1,"32.6 µM [falling, single point]",–
Cc1[nH]c2ccc(F)cc2c1CCN(Cc1ccncc1)C(=S)Nc1ccccc1,"35.5 µM [falling, single point]",–
O=C(Oc1ccc(Cl)cc1)c1ccc(COC(=O)c2cnccn2)cc1,"29.1 µM [rising, single point]",–
CC1(C)CC(=O)C(C=NCC2CCCO2)=C(O)C1 (configuration not stated),"35.5 µM [rising, single point]",–
CCCNC(=O)N1CCC(Cc2ccccc2)CC1,"11.2 µM [rising, partial curve, poor fit]",–
COc1cccc(C(=O)Cn2c(=N)n(C)c3ccccc32)c1,"10 µM [falling, single point]",–
COc1ccccc1C(CNC(=O)c1ccc(C)c(S(=O)(=O)N2CCCCC2)c1)N(C)C (configuration not stated),"0.651 µM [falling, full curve, poor fit]",–
CC(C)(C)OC(=O)COc1cc(OCC(=O)OC(C)(C)C)c2c(=O)cc(-c3ccccc3)oc2c1,"20 µM [falling, single point]","12.6 µM [rising, partial curve, poor fit]"
Cc1c(Cc2ccccc2)sc(NC(=O)c2ccco2)c1C(N)=O,"6.51 µM [falling, partial curve, poor fit]","0.58 µM [rising, full curve]"
COc1ccccc1C(=O)NCC(=O)NNC(=O)c1cccs1,"0.731 µM [falling, single point]",–
COc1ccc(C(=O)NN(C)c2nc(-c3ccccc3)nnc2C(F)(F)F)cc1,"11.2 µM [rising, single point]",–
Nc1nonc1C(=O)N/N=C\c1cc2c(cc1Cl)OCO2,"31.6 µM [rising, single point]","35.5 µM [falling, single point]"
COc1cc2[nH]c(=S)nc(NCCc3ccc(S(N)(=O)=O)cc3)c2cc1OC,"8.91 µM [rising, partial curve, poor fit]",–
Cc1cc(Nc2ccc(N3CCC(C)CC3)cc2)n2ncnc2n1,"16.4 µM [falling, partial curve, poor fit]",–

# 15 of the compounds above, with tabs.
Compound	AC50 [1]	AC50 [2]
O=[N+]([O-])c1ccc(O)c(/C=N/Nc2ccccn2)c1	29.1 µM [falling, single point]	–
O=C(CSc1nc(=O)n2cc(Cl)ccc2n1)Nc1cccc2ccccc12	8.2 µM [falling, partial curve]	–
NC(=O)[C@@H]1CCCN1C(=O)c1ccc2nc(Cc3ccccc3F)oc2c1	35.5 µM [falling, partial curve, poor fit]	–
CCCCC(CC)C(=O)NCc1ccc(F)cc1 (configuration not stated)	0.731 µM [rising, full curve, poor fit]	–
C=CCOc1ccccc1CN(C(=O)CCl)c1ccc2c(c1)OCO2	14.1 µM [falling, partial curve]	–
CCN1CCN(Cc2ccc(NC(=O)c3cc(NC(=O)c4cc(C)on4)cc(OC)c3)cc2C(F)(F)F)CC1	11.2 µM [falling, partial curve]	–
COc1ccc(N(CC(=O)Nc2ccc(F)c(Cl)c2)S(=O)(=O)c2c(C)noc2C)cc1	32.6 µM [falling, single point]	–
Cc1[nH]c2ccc(F)cc2c1CCN(Cc1ccncc1)C(=S)Nc1ccccc1	35.5 µM [falling, single point]	–
O=C(Oc1ccc(Cl)cc1)c1ccc(COC(=O)c2cnccn2)cc1	29.1 µM [rising, single point]	–
CC1(C)CC(=O)C(C=NCC2CCCO2)=C(O)C1 (configuration not stated)	35.5 µM [rising, single point]	–
CCCNC(=O)N1CCC(Cc2ccccc2)CC1	11.2 µM [rising, partial curve, poor fit]	–
COc1cccc(C(=O)Cn2c(=N)n(C)c3ccccc32)c1	10 µM [falling, single point]	–
COc1ccccc1C(CNC(=O)c1ccc(C)c(S(=O)(=O)N2CCCCC2)c1)N(C)C (configuration not stated)	0.651 µM [falling, full curve, poor fit]	–
CC(C)(C)OC(=O)COc1cc(OCC(=O)OC(C)(C)C)c2c(=O)cc(-c3ccccc3)oc2c1	20 µM [falling, single point]	12.6 µM [rising, partial curve, poor fit]
Cc1c(Cc2ccccc2)sc(NC(=O)c2ccco2)c1C(N)=O	6.51 µM [falling, partial curve, poor fit]	0.58 µM [rising, full curve]

# Next records

Compound,AC50 [1],AC50 [2]
CC(=O)c1c(C)nc(Nc2nc(C)c3cc(C)ccc3n2)nc1C,"8.91 µM [rising, partial curve, poor fit]",–
COc1ccc(/C=C/C(=O)Nc2ccccc2C(=O)NCC(c2ccc(OC)cc2)N(C)C)cc1 (configuration not stated),"15.8 µM [falling, single point]",–
CC[C@]12c3[nH]c4ccc(Cl)cc4c3CCN1C(=O)[C@@H](CC(=O)NC/C=C(\C)CCC=C(C)C)C[C@@H]2C(=O)N1CCN(C(=O)C2CC2)CC1,"20.6 µM [falling, single point]","32.6 µM [rising, partial curve, poor fit]"
O=C(NC1CC1)C1=C[C@H](c2c[nH]c3ccccc23)C[C@H](OCc2ccc(CO)cc2)O1,"3.55 µM [rising, full curve]",–
O=C(Nc1nc(=O)c2ccccc2s1)c1ccccc1,"2.59 µM [falling, full curve, poor fit]",–
COc1ccc(CCNCc2c(-c3ccccc3)n(C)c3ccccc23)cc1,"15.8 µM [falling, single point]",–
CNc1snc(C)c1C(=O)OC(C)C(=O)Nc1ccccc1 (configuration not stated),"29.1 µM [rising, single point]",–
O=C(CSC1=NCCS1)N1CCc2ccccc21,"0.731 µM [rising, partial curve, poor fit]",–
CC(C)c1ccccc1OCCNS(C)(=O)=O,"7.94 µM [rising, partial curve, poor fit]",–
Cc1cc(C)c(OCCN(C)Cc2ccccc2)c(Br)c1,"15.8 µM [rising, single point]",–
Cc1ccc(COc2ccsc2C(=O)NNC(N)=S)cc1,"22.4 µM [falling, single point]",–
Oc1c(C(c2ccccn2)N2CCCCC2)cc(Cl)c2cccnc12 (configuration not stated),"15.8 µM [falling, partial curve, poor fit]",–
Cc1cc(NCCCN2CCOCC2)n2c(nc3ccccc32)c1C#N,"35.5 µM [falling, single point]",–
N#Cc1cccc(NC(=O)CNc2cccc(S(=O)(=O)N3CCCC3)c2)c1,"18.4 µM [falling, single point]",–
O=C(CNC(=O)c1ccccc1F)NCCc1ccccc1F,"3.26 µM [rising, single point]",–
COc1ccc(C(=O)Nc2nc3ccccc3c(=O)[nH]2)cc1,"0.184 µM [falling, full curve]",–
Cn1cnnc1SCC(=O)Nc1ncc([N+](=O)[O-])s1,"14.6 µM [falling, partial curve, poor fit]",–
OCCNCc1ccc(-c2ccccc2)cc1,"0.731 µM [falling, full curve, poor fit]",–
CC(=O)NCCc1csc(-c2ccccc2)n1,"29.1 µM [rising, single point]",–
C/C=C(\C)C(=O)Nc1cccc(C2=NOC3(C2)C[C@@H](C(N)=O)N(C(=O)c2cc([N+](=O)[O-])cc([N+](=O)[O-])c2C)C3)c1 (some centres not stated),"0.447 µM [rising, full curve, poor fit]",–
O=C(O)C(Oc1ccc2c(c1)oc(=O)c1ccccc12)c1ccccc1 (configuration not stated),"11.2 µM [rising, partial curve, poor fit]",–

Compound,AC50 [1],AC50 [2]
CCc1ccc2c(c1)[C@H]1OCC[C@H]1[C@@H](c1cccs1)N2,"6.51 µM [rising, single point]",–
CCC1CCCCN1C(=O)Cn1c(C(=O)OC)cc2sc(Cl)cc21 (configuration not stated),–,"6.51 µM [rising, single point]"
CC1CCCN(C(=O)Cn2c(-c3nonc3N)nc3ccccc32)C1 (configuration not stated),"17.8 µM [falling, single point]",–
Cc1ccc(NC(=O)N2CCN(C)CC2)cc1NC(=O)N1CCN(C)CC1,"14.1 µM [rising, single point]",–
C=CCSc1n[nH]c(-c2ccc(OC)cc2)n1,"14.6 µM [falling, partial curve]",–
O=C(Nc1ccc([N+](=O)[O-])cc1Cl)c1cc(Cl)ccc1O,"0.366 µM [falling, full curve]",–
O=C(Cc1cccc2ccccc12)Nc1ccc2c(c1)C(=O)NC2=O,"7.94 µM [falling, partial curve, poor fit]",–
CCN1CCN(S(=O)(=O)c2ccc(Cl)c(C(=O)NC3CC3)c2)CC1,"6.51 µM [rising, partial curve, poor fit]",–
COc1ccccc1NC(=O)CSc1nc2nc(C)cc(C)c2c(=O)[nH]1,"13 µM [falling, partial curve, poor fit]",–
COc1cccc(Nc2nc(N)nc(-c3oc4ccccc4c3C)n2)c1,"1.58 µM [falling, full curve]",–
c1ccc(-c2csc3ncnc(N4CCOCC4)c23)cc1,"22.4 µM [rising, partial curve, poor fit]",–
O=C(Nc1ccccc1)C1=C[C@H](c2ccc(Br)cc2)C[C@H](OCc2ccc(CO)cc2)O1,"35.5 µM [falling, single point]",–
Cc1nc(NC(=O)c2c(-c3ccccc3Cl)noc2C)sc1C,"1.78 µM [falling, partial curve]","3.16 µM [rising, full curve, poor fit]"
CC(C)=NOCc1ccc(-c2cn([C@@H]3COC[C@H]3O)nn2)cc1,"25.9 µM [rising, single point]",–
Cc1nc2nc(C)c(NS(=O)(=O)c3ccc(Cl)s3)c(=O)n2[nH]1,"1 µM [falling, full curve, poor fit]",–
O=C(NNc1cccc([N+](=O)[O-])c1)/C(=C\c1cccnc1)NC(=O)c1ccccc1,"15.8 µM [rising, single point]",–
Clc1cccc(CSc2nccn2-c2ccccc2)c1,"0.112 µM [falling, full curve, poor fit]",–
O=C1CC(NS(=O)(=O)c2cccnc2)CN1c1ccc(F)cc1 (configuration not stated),"18.4 µM [rising, partial curve]",–
COC(=O)Nc1c(-c2ccccc2)nc2ccccn12,–,"5.8 µM [rising, partial curve, poor fit]"
COc1ccc(-c2nnc(-c3cc(OC)c(OC)c(OC)c3)o2)cc1OC,"14.6 µM [rising, partial curve, poor fit]",–
